The values below come from patent US20180117182.

The test system of data set [1] is thrombin in human plasma / plasma clot (Homo sapiens). The data set can be described thus: binding assay. Particulars: 2'-F pyrimidines, 2'-OH purines, 3' idT, 5' C6 amine or thiol linker, protein in an extract, label: 5' Alexa Fluor 680.
The test system of data set [2] is thrombin at in vivo thrombus (Mus musculus). Put plainly: binding assay. Particulars: 2'-F pyrimidines, 2'-OH purines, 3' idT, 5' C6 amine or thiol linker, FeCl3 jugular vein thrombus NIR imaging, label: 5' Alexa Fluor 680, variant of Tog25t.

For some assays here: Where cells or extracts were used, other partners may take part. No signal at the amounts used counts as a negative. For at least one entry, the source does not settle the construct or the ends of the probe.

As to “GGAGCAGCUAGACGGUAUAAGGAUA [Tog25t-Control3-AF680]”, in data set [1] (human plasma clot fluorescence, Tog25t signal significantly enhanced over this control), the binding result is listed as “no binding”.
“GGGAACAAAGCUGAAGUACUUACCC [Tog25t-AF680]”: the binding result was “binds” in data set [2] (reversed by AO4) and “binds” in data set [1] (human plasma clot fluorescence imaging, 37 C, reversed by antidote AO4, variant of Tog25t).
With “GGGAACAAAGCUGAAGUACUUAGGG [Tog25t-Control2-AF680]”, the binding result in data set [2] (no significant localization) was “no binding”; in data set [1] (human plasma clot fluorescence, described as non-binding point mutant control, variant of Tog25t) it was “no binding”.
